Laboratory results as given in article PMC11904033, “Lanatoside C activates the E3 ligase STUB1 to inhibit FOXP3 transcriptional activity and promote antitumor immunity” (EMBO Molecular Medicine, 2025).
These are yes or no findings as the source states them, for the method shown. In cells and extracts the contact can be indirect. Some binding calls cover weakened binding; strength is not graded here.

The chains behind the UniProt entries cited, without tags or fusion partners. Residues count along the entry.
UniProt Q9BZS1, residues 1-417: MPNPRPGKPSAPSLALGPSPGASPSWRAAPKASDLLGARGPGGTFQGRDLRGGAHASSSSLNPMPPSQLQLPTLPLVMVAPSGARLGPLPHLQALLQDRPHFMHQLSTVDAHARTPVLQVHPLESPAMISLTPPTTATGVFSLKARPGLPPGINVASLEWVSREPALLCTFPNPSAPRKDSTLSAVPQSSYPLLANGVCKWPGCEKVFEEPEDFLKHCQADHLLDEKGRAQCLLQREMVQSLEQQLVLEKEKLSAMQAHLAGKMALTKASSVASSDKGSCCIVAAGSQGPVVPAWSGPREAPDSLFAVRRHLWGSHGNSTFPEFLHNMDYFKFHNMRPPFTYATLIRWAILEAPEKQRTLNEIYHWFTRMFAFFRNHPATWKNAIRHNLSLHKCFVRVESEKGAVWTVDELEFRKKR
UniProt Q01196: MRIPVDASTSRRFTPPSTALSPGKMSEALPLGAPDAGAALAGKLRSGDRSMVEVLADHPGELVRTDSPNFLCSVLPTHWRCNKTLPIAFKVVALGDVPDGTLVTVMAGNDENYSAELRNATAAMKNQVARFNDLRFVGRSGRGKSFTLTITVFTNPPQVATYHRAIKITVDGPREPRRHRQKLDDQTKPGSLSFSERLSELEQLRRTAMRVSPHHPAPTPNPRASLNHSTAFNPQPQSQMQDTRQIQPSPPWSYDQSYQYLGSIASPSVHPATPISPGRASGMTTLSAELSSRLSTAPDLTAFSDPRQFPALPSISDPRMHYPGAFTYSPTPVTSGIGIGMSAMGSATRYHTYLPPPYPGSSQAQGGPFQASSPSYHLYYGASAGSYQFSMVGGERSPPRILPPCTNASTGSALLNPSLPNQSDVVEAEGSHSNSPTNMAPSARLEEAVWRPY
UniProt P26842, residues 20-260: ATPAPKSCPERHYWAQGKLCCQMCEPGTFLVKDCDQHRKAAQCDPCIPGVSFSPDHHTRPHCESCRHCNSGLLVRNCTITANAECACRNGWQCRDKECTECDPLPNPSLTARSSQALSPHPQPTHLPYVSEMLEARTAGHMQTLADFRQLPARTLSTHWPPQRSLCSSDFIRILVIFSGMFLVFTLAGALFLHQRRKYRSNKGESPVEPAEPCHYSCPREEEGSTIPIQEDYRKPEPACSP
UniProt Q9UNE7: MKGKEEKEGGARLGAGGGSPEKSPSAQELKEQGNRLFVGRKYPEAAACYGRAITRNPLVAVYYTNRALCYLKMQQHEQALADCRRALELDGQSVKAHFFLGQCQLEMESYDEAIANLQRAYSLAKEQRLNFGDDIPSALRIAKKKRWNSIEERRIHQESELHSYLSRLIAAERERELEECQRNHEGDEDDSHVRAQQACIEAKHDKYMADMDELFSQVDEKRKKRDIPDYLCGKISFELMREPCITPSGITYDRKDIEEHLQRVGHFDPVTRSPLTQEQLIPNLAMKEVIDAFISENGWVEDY

Key:
[1] = biological target: Nlu-FOXP3-Flag (FOXP3 fused to the N-terminal half of firefly luciferase, 3xFlag) (UniProt Q9BZS1); test: split reporter; bimolecular luciferase complementation (halves of firefly luciferase) in 293T cells that co-express the two fusions; Bright-Glo Luciferase Assay System, 96-well plate
[2] = biological target: Nlu-FOXP3-Flag (FOXP3 fused to the N-terminal half of firefly luciferase, 3xFlag) (UniProt Q9BZS1); test: co-IP; lysate of 293T-NF + RC cells treated with DMSO or Lac; FOXP3 precipitated, RUNX1 detected by immunoblot
[3] = biological target: RUNX1 (expressed in 293T for the co-IP with STUB1) (UniProt Q01196); test: co-IP; lysate of 293T cells co-transfected with the indicated plasmids for around 36 h, treated with DMSO or Lac; RUNX1 precipitated, STUB1 detected by immunoblot

Row | binding [1] | binding [2] | binding [3] | Substance
1 | no binding | – | – | CD27-Clu-Myc (CD27 fused to the C-terminal half of firefly luciferase) (from UniProt P26842 20-260)
2 | binds | binds | – | RUNX1-Clu-Myc (RUNX1 fused to the C-terminal half of firefly luciferase, Myc) (from UniProt Q01196 1-453)
3 | – | – | binds | STUB1 (expressed in 293T for the co-IP with RUNX1) (from UniProt Q9UNE7 1-303)
